This note sets out measurements from publication PMC9278858.

Assay [1] concerns the target TAP-Sen1 (full-length Sen1 fused to a tandem affinity purification tag, expressed from pGAL1) (S. cerevisiae) (UniProt Q00416). Briefly: affinity purification with mass spectrometry; TAP-tagged Sen1 versions (full length, ΔNTD, NTD) overexpressed from pGAL1 as baits; yeast lysates in 10 mM sodium phosphate pH 7.5, 200 mM sodium acetate, 0.25% NP-40, treated with RNase A; IgG Sepharose; elution by TEV cleavage; untagged control.

Assay [2] addresses T1, TAP-Sen1ΔNTD (Sen1 lacking the N-terminal domain, TAP-tagged, expressed from pGAL1) (S. cerevisiae) (UniProt Q00416).
T1 sequence: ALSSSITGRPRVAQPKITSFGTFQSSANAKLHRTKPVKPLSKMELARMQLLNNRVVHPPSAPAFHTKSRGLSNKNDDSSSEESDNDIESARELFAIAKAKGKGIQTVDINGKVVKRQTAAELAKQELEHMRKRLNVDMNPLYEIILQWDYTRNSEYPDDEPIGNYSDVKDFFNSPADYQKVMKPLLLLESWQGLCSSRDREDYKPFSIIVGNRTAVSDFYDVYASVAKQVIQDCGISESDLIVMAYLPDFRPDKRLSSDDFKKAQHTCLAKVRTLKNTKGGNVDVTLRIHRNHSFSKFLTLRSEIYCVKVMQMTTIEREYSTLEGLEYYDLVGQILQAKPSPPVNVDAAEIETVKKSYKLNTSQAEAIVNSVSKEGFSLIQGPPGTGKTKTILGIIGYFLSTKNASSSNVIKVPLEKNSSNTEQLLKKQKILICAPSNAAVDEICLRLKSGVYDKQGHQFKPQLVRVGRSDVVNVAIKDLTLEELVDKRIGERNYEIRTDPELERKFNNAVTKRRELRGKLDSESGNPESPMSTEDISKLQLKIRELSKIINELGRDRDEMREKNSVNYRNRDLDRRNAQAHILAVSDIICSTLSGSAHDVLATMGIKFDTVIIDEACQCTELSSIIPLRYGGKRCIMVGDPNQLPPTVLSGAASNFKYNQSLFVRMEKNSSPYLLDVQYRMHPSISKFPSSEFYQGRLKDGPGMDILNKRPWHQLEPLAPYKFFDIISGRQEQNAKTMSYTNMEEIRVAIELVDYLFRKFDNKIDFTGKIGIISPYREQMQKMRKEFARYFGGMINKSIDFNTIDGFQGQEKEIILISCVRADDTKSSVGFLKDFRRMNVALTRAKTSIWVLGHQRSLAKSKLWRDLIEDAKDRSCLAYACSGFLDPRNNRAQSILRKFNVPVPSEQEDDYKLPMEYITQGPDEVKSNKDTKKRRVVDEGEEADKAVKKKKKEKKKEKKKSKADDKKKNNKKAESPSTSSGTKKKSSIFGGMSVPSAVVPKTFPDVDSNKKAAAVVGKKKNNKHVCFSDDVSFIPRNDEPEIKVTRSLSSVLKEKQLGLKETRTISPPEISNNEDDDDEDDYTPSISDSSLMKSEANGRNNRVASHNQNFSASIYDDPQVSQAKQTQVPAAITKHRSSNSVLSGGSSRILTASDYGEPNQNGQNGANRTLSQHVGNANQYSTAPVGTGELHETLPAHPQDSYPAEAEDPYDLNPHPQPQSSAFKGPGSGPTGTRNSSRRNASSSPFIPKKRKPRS
The assay is described as above.

Assay [3] has as its target T2, TAP-NTD (isolated N-terminal domain of Sen1, TAP-tagged, expressed from pGAL1) (S. cerevisiae) (UniProt Q00416).
T2 sequence: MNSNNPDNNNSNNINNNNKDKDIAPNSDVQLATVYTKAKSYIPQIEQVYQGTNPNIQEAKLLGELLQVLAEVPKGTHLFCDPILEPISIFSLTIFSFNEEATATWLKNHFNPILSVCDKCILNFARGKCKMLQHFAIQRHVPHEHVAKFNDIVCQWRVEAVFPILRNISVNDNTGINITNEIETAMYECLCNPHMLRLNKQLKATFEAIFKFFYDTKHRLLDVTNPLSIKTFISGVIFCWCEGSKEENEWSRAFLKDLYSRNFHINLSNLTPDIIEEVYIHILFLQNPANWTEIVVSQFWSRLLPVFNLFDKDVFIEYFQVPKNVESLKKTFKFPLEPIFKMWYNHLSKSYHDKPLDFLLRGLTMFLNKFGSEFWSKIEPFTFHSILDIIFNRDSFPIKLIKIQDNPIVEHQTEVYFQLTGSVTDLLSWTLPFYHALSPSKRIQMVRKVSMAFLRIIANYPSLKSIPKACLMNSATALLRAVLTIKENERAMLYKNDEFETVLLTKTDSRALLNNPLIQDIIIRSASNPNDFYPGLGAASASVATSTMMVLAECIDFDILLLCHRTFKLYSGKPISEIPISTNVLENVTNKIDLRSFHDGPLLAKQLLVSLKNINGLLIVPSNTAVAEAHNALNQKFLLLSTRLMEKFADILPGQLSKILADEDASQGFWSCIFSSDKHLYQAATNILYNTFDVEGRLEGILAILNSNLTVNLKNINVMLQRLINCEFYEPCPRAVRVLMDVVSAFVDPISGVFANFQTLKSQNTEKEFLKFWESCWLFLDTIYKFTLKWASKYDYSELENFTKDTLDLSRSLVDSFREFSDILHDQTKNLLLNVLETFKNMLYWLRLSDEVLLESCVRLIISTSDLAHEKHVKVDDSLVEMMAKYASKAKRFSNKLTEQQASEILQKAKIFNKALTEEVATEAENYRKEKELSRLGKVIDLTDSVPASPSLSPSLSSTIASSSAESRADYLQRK
The assay is described as above.

In assay [4] the target is Sen1-3–TAP (Sen1 W773A E774A W777A fused to a TAP tag) (S. cerevisiae) (UniProt Q00416). Briefly: affinity purification with mass spectrometry; Sen1-TAP or Sen1-3–TAP as bait; yeast lysates; untagged control.
In assay [5] the target is Sen1-TAP (wild-type Sen1 fused to a TAP tag) (S. cerevisiae) (UniProt Q00416). The assay is described as above.

These are yes or no findings as the source states them, for the method shown. In cells and extracts the contact can be indirect. These calls come from enrichment with a bait or labelling near it, and not all partners need be listed. For some of these results: No binding means not detected with the bait. For some of these results: Sequences can lack the tags named with a protein.

B1: Nrd1 (protein, UniProt P53617 1-575)
chain: MQQDDDFQNFVATLESFKDLKSGISGSRIKKLTTYALDHIDIESKIISLIIDYSRLCPDSHKLGSLYIIDSIGRAYLDETRSNSNSSSNKPGTCAHAINTLGEVIQELLSDAIAKSNQDHKEKIRMLLDIWDRSGLFQKSYLNAIRSKCFAMDISNNTANTASQQLSLDPKQRSKQILSNLKKSPPLNLNISLPTDLTSTDPAKQQAALFQVIAALQKHFKTLPSHTSVGTVAPPQAHTITEYGSRRERERERERYNSRRNRSRSPPAPFSQPSTGRKDRYPSVAQDQYSIGAPNTTFGTNNHHLYPDELNVSNNPHYRPKPVSYDSTLPPDHIKVYSRTLFIGGVPLNMKEWDLANVLKPFAEVQSVILNNSRKHAFVKVYSRHEAENVLQNFNKDGALPLRTRWGVGFGPRDCCDYQHGYSIIPMHRLTDADKKWSVSAQWGGTSGQPLVTGIVFEEPDIIVGEGVSSKAISQKMPTDSGRNGPRSGKPNKSGSISSISPVPYGNAPLASPPPQQYVQPMMQQPYGYAPNQPLPSQGPAAAAPPVPQQQFDPTAQLNSLMNMLNQQQQQQQQS
Turning to B1, the binding result in assay [1] is “binds”; in assay [2], “binds”; in assay [3], “no binding”; in assay [4], “binds”; in assay [5] it was “binds”.

B2: Rpc160 (protein, UniProt P04051 1-1460)
chain: MKEVVVSETPKRIKGLEFSALSAADIVAQSEVEVSTRDLFDLEKDRAPKANGALDPKMGVSSSSLECATCHGNLASCHGHFGHLKLALPVFHIGYFKATIQILQGICKNCSAILLSETDKRQFLHELRRPGVDNLRRMGILKKILDQCKKQRRCLHCGALNGVVKKAAAGAGSAALKIIHDTFRWVGKKSAPEKDIWVGEWKEVLAHNPELERYVKRCMDDLNPLKTLNLFKQIKSADCELLGIDATVPSGRPETYIWRYLPAPPVCIRPSVMMQDSPASNEDDLTVKLTEIVWTSSLIKAGLDKGISINNMMEHWDYLQLTVAMYINSDSVNPAMLPGSSNGGGKVKPIRGFCQRLKGKQGRFRGNLSGKRVDFSGRTVISPDPNLSIDEVAVPDRVAKVLTYPEKVTRYNRHKLQELIVNGPNVHPGANYLLKRNEDARRNLRYGDRMKLAKNLQIGDVVERHLEDGDVVLFNRQPSLHRLSILSHYAKIRPWRTFRLNECVCTPYNADFDGDEMNLHVPQTEEARAEAINLMGVKNNLLTPKSGEPIIAATQDFITGSYLISHKDSFYDRATLTQLLSMMSDGIEHFDIPPPAIMKPYYLWTGKQVFSLLIKPNHNSPVVINLDAKNKVFVPPKSKSLPNEMSQNDGFVIIRGSQILSGVMDKSVLGDGKKHSVFYTILRDYGPQEAANAMNRMAKLCARFLGNRGFSIGINDVTPADDLKQKKEELVEIAYHKCDELITLFNKGELETQPGCNEEQTLEAKIGGLLSKVREEVGDVCINELDNWNAPLIMATCGSKGSTLNVSQMVAVVGQQIISGNRVPDGFQDRSLPHFPKNSKTPQSKGFVRNSFFSGLSPPEFLFHAISGREGLVDTAVKTAETGYMSRRLMKSLEDLSCQYDNTVRTSANGIVQFTYGGDGLDPLEMEGNAQPVNFNRSWDHAYNITFNNQDKGLLPYAIMETANEILGPLEERLVRYDNSGCLVKREDLNKAEYVDQYDAERDFYHSLREYINGKATALANLRKSRGMLGLLEPPAKELQGIDPDETVPDNVKTSVSQLYRISEKSVRKFLEIALFKYRKARLEPGTAIGAIGAQSIGEPGTQMTLKTFHFAGVASMNVTLGVPRIKEIINASKVISTPIINAVLVNDNDERAARVVKGRVEKTLLSDVAFYVQDVYKDNLSFIQVRIDLGTIDKLQLELTIEDIAVAITRASKLKIQASDVNIIGKDRIAINVFPEGYKAKSISTSAKEPSENDVFYRMQQLRRALPDVVVKGLPDISRAVINIRDDGKRELLVEGYGLRDVMCTDGVIGSRTTTNHVLEVFSVLGIEAARYSIIREINYTMSNHGMSVDPRHIQLLGDVMTYKGEVLGITRFGLSKMRDSVLQLASFEKTTDHLFDAAFYMKKDAVEGVSECIILGQTMSIGTGSFKVVKGTNISEKDLVPKRCLFESLSNEAALKAN
As to B2, the binding entry in assay [1] is on record as “binds”; in assay [2], “no binding”; in assay [3], “binds”; in assay [5], “binds”.

B3: Rpa135 (protein, UniProt P22138 1-1203)
chain: MSKVIKPPGQARTADFRTLERESRFINPPKDKSAFPLLQEAVQPHIGSFNALTEGPDGGLLNLGVKDIGEKVIFDGKPLNSEDEISNSGYLGNKLSVSVEQVSIAKPMSNDGVSSAVERKVYPSESRQRLTSYRGKLLLKLKWSVNNGEENLFEVRDCGGLPVMLQSNRCHLNKMSPYELVQHKEESDEIGGYFIVNGIEKLIRMLIVQRRNHPMAIIRPSFANRGASYSHYGIQIRSVRPDQTSQTNVLHYLNDGQVTFRFSWRKNEYLVPVVMILKALCHTSDREIFDGIIGNDVKDSFLTDRLELLLRGFKKRYPHLQNRTQVLQYLGDKFRVVFQASPDQSDLEVGQEVLDRIVLVHLGKDGSQDKFRMLLFMIRKLYSLVAGECSPDNPDATQHQEVLLGGFLYGMILKEKIDEYLQNIIAQVRMDINRGMAINFKDKRYMSRVLMRVNENIGSKMQYFLSTGNLVSQSGLDLQQVSGYTVVAEKINFYRFISHFRMVHRGSFFAQLKTTTVRKLLPESWGFLCPVHTPDGSPCGLLNHFAHKCRISTQQSDVSRIPSILYSLGVAPASHTFAAGPSLCCVQIDGKIIGWVSHEQGKIIADTLRYWKVEGKTPGLPIDLEIGYVPPSTRGQYPGLYLFGGHSRMLRPVRYLPLDKEDIVGPFEQVYMNIAVTPQEIQNNVHTHVEFTPTNILSILANLTPFSDFNQSPRNMYQCQMGKQTMGTPGVALCHRSDNKLYRLQTGQTPIVKANLYDDYGMDNFPNGFNAVVAVISYTGYDMDDAMIINKSADERGFGYGTMYKTEKVDLALNRNRGDPITQHFGFGNDEWPKEWLEKLDEDGLPYIGTYVEEGDPICAYFDDTLNKTKIKTYHSSEPAYIEEVNLIGDESNKFQELQTVSIKYRIRRTPQIGDKFSSRHGQKGVCSRKWPTIDMPFSETGIQPDIIINPHAFPSRMTIGMFVESLAGKAGALHGIAQDSTPWIFNEDDTPADYFGEQLAKAGYNYHGNEPMYSGATGEELRADIYVGVVYYQRLRHMVNDKFQVRSTGPVNSLTMQPVKGRKRHGGIRVGEMERDALIGHGTSFLLQDRLLNSSDYTQASVCRECGSILTTQQSVPRIGSISTVCCRRCSMRFEDAKKLLTKSEDGEKIFIDDSQIWEDGQGNKFVGGNETTTVAIPFVLKYLDSELSAMGIRLRYNVEPK
As to B3, the binding entry in assay [1], in assay [2], in assay [4] and in assay [5] was “binds” in each case.
